Each structure is given as a SMILES string. Out of some 1,600 compounds screened, about 430 (27%) were called active. Cut-off read from the data, not from the text of the source: active = inhibition above about 29%; inactive = the rest. Only a part is listed here, and it is no random draw.

By UniProt entry, the sequences of proteins in these tests, tags left out.
UniProt P32245, whole entry, looked up: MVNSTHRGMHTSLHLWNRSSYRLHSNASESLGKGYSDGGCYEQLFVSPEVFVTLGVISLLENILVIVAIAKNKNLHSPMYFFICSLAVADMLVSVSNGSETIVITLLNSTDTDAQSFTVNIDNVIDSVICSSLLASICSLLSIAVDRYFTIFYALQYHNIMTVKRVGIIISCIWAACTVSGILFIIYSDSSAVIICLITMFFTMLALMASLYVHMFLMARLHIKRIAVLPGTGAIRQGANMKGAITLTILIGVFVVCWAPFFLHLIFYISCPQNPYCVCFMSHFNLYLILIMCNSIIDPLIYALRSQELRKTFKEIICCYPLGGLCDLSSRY

The target in this test is Melanocortin receptor 4 (Homo sapiens) (UniProt P32245). As to the kind of experiment: blockers of MC4R cAMP signaling – cell-based, TR-FRET, confirmation (AID 602195).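 Note: 0% = agonist stimulated wells alone and 100% = agonist stimulated wells plus saturating reference antagonist.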 The following applies: MC4R-expressing cells, MTII-stimulated cAMP, at 6.5 µM, hits give high values.
Regarding `Cc1cccc(N2C(=O)NC(=O)/C(=C\c3cnn(-c4ccccc4)c3)C2=O)c1`, the inhibition was inactive: 10.2%.

Values taken from PubChem BioAssay AID602195 (The Scripps Research Institute Molecular Screening Center, 2012).
